Laboratory results: US20030144208A1 (ZymoGenetics, published 2003)
Results are given in words; binding and its absence hold for the method and conditions named. For some of these results: Binding can be weak; no strength is given.

Columns and labels:
[1] = molecular target: human collagen Type VI (Chemicon International) (human); experiment: quantitative ELISA, zsig37-FITC at 0.4 to 4 ug/ml on 10 ug plated collagen type VI, luminescence
[2] = molecular target: complement C1q (Sigma Co.); experiment: quantitative ELISA as in Example 13; binding concentration dependent and saturable
[3] = molecular target: complement C1q (Sigma Co.); experiment: quantitative ELISA
fibronectin = experiment: ELISA on plated matrix protein, 1.8 ug/ml zsig37-FITC, chemiluminescence on film
[4] = molecular target: human collagen Type V (Chemicon International) (human); experiment: as above
[5] = molecular target: human collagen Type VI (Chemicon International) (human); experiment: as above
[6] = molecular target: human collagen Type VI (Chemicon International) (human); experiment: quantitative ELISA on plated collagen type VI
[7] = molecular target: human collagen Type IV (Chemicon International) (human); experiment: ELISA on plated matrix protein, anti-FITC/biotin, streptavidin/HRP, chemiluminescence on film
vitronectin = experiment: as above
[8] = molecular target: human collagen Type VI (Chemicon International) (human); experiment: competition ELISA on plated collagen type VI; competitor zsig37-FITC at 0.4 ug/ml

B1: zsig37-FITC (ligand)
chain: LVLSRVPHVQGEQQEWEGTEELPSPPDHAERAEEQHEKYRPSQDQGLPASRCLRCCDPGTSMYPATAVPQINITILKGEKGDRGDRGLQGKYGKTGSAGARGHTGPKGQKGSMGAPGERCKSHYAAFSVGRKKPMHSNHYYQTVIFDTEFVNLYDHFNMFTGKFYCYVPGLYFFSLNVHTWNQKETYLHIMKNEEEVVILFAQVGDRSIMQSQSLMLELREQDQVWVRLYKGERENAIFSEELDTYITFSGYLVKHATEP
modifications: FITC label (sites not given)
notes: 22-281 is used here; also called FITC labeled zsig37; FITC tagged Zsig37 protein
**Q.** Which binding [1] does the source give for B1 here?
**A.** binds

**Q.** What about the binding [2] of the same binder?
**A.** binds

**Q.** What about the binding [3] of the same binder?
**A.** binds

**Q.** And the binding (fibronectin)?
**A.** binds

**Q.** What about the binding [4] of the same binder?
**A.** binds

**Q.** And the binding [5]?
**A.** binds

**Q.** What about the binding [6] of the same binder?
**A.** binds

**Q.** And the binding [7]?
**A.** no binding (tested: 1.8 µg/ml zsig37-FITC)

**Q.** And the binding (vitronectin)?
**A.** no binding (tested: 1.8 µg/ml zsig37-FITC)

B2: zsig37 (unlabeled) (ligand)
chain: LVLSRVPHVQGEQQEWEGTEELPSPPDHAERAEEQHEKYRPSQDQGLPASRCLRCCDPGTSMYPATAVPQINITILKGEKGDRGDRGLQGKYGKTGSAGARGHTGPKGQKGSMGAPGERCKSHYAAFSVGRKKPMHSNHYYQTVIFDTEFVNLYDHFNMFTGKFYCYVPGLYFFSLNVHTWNQKETYLHIMKNEEEVVILFAQVGDRSIMQSQSLMLELREQDQVWVRLYKGERENAIFSEELDTYITFSGYLVKHATEP
**Q.** For B2, which binding [8] is on record?
**A.** binds
